{"source": "patent US20260140118A1", "about": "“COMBINATION DRUG” (CHUGAI SEIYAKU KABUSHIKI KAISHA, priority 2022, published 2026)", "key": {"[1]": {"test_system": "NCI-H2228 cells (parental cells)", "assay": "Cell growth suppression test on NCI-H2228 parental cells", "type": "cell-based", "details": "Homo sapiens, Table 3, nine screening hits", "protocol": "(§1) Next, for these nine compounds, a cell growth suppression test was conducted, and the ratio of IC50 of DTP cells with respect to the parental line was calculated."}, "[2]": {"test_system": "DTP cells", "assay": "Cell growth suppression test on DTP cells", "type": "cell-based, human", "details": "Table 3", "protocol": "as §1"}}}
{"compound": "COc1cc(OC)cc(N(CCNC(C)C)c2ccc3ncc(-c4cnn(C)c4)nc3c2)c1", "note": "[Erdafitinib, N^1-(3,5-dimethoxyphenyl)-N^2-(1-methylethyl)-N^1-[3-(1-methyl-1H-pyrazol-4-yl)-6-quinoxalinyl]-1,2-ethanediamine]", "values": [{"measurement": "IC50", "setting": "[1]", "value": 6.14, "unit": "µM"}, {"measurement": "IC50", "setting": "[2]; Homo sapiens, nine screening hits", "value": 0.0067, "unit": "µM"}, {"measurement": "IC50 Ratio of parental to DTP cells", "setting": "[2]", "value": 920.8}]}
